# The shares of active, inactive and inconclusive entries below differ from those in the screen. Where the call is inconclusive, the potency comes from a doubtful curve fit. The source made the active and inactive calls. The call rests on the fitted dose curve; in most records, active means well fitted cell-killing curve with a large enough effect; inconclusive means small, poorly fitted or top-dose-only effect, or effect the other way; inactive means no such curve, though single readings can be large or run the other way.
# Experiment: Quantitative High-Throughput drug screen in 47 multiple myeloma cell lines against the NCATS MIPE library collection: U266_ATCC cell viability assay (AID 1919864); further: nearly all actives have a fitted effect of over 35% in size
# Conditions: U266 myeloma viability, CellTiter-Glo ATP luminescence, 48 h; series mostly up to 45.8 µM
# From the text: PI: Beverly A. Mock Ph.D.
# Laboratory of Cancer Biology and Genetics,
# Center for Cancer Research, National Cancer Institute,
# National Institute of Health, Bethesda, Maryland
# Drug resistance and disease progression are common in multiple myeloma (MM) patients, underscoring the need for new therapeutic combinations. […] We hypothesized that effective combinations would reduce MYC expression and enhance p16 activity. […] These preclinical data identify potentially useful drug combinations for evaluation in drug-resistant MM and reveal potential mechanisms of combined drug sensitivity.
# Described herein is the primary MIPE qHTS used to cherrypick compounds. Validated compounds were then further tested for potential synergistic activiy.
# [1] Peat TJ, Gaikwad SM, Dubois W, Gyabaah-Kessie N, Zhang S, Gorjifard S, Phyo Z, Andres M, Hughitt VK, Simpson RM, Miller MA, Girvin AT, Taylor A, Williams D, D'Antonio N, Zhang Y, Rajagopalan A, Flietner E, Wilson K, Zhang X, Shinn P, Klumpp-Thomas C, McKnight C, Itkin Z, Chen L, Kazandijian D, Zhang J, Michalowski AM, Simmons JK, Keats J, Thomas CJ, Mock BA. Drug combinations identified by high-throughput screening promote cell cycle transition and upregulate Smad pathways in myeloma. Cancer Lett. 2023 Aug 1;568:216284. doi: 10.1016/j.canlet.2023.216284. Epub 2023 Jun 24. PMID: 37356470; PMCID: PMC10408729.
# SEQUENCE No. (e.g., 1, 2, 3, etc.); […] (e.g., Cells, Incubation, Reagent, etc.); VALUE and DESCRIPTION.
# 1; Cells; 5 uL; white, solid bottom 1536-well Greiner assay plate.
# 2; Compounds; 23 nL; Kalypsis pin tool (Wako USA) equipped with a 1536-well pin head to transfer to the assay plates.
# 3; Incubation; 48 hours; 37C incubation.
# 4; Reagent;5uL; CellTiter Glo (Promega).
# 5; Detector; 425V; Luminescence; Viewlux PerkinElmer.
# NOTES (numbers refer to Sequence numbers above)
# 1. The cell-based screening methods employed in this study were like those previously published. Briefly, the corresponding myeloma cell lines were screened in 1,536-well plates with 500 cells, 5-uL per well for inhibition of cell viability (assessed by measuring ATP levels with CellTiterGlo).
# 2. NCATS MIPE 4.0 library of approved and investigational drugs were added using the Kalypsis pin tool. Wells treated with DMSO only for 100% viability and media only for 0% viability were used as controls.
# 3. The assay plates were covered and incubated for 48 hours in a 37C, 5% CO2 incubator with controlled humidity.
# 4. After 48 hours, CellTilter-GloTM luminescent substrate mix (Promega) reagent was added to the assay plate and plates we incubated for 5 min at room temperature.
# 5. Signal was measured as median relative luminescence units on a ViewLux (PerkinElmer) multiplate reader.
# [1] Heske CM, Davis MI, Baumgart JT, Wilson K, Gormally MV, Chen L, Zhang X, Ceribelli M, Duveau DY, Guha R, Ferrer M, Arnaldez FI, Ji J, Tran HL, Zhang Y, Mendoza A, Helman LJ, Thomas CJ. Matrix Screen Identifies Synergistic Combination of PARP Inhibitors and Nicotinamide Phosphoribosyltransferase (NAMPT) Inhibitors in Ewing Sarcoma. Clin Cancer Res. 2017 Dec 1;23(23):7301-7311. doi: 10.1158/1078-0432.CCR-17-1121. Epub 2017 Sep 12. PMID: 28899971; PMCID: PMC6636827.
# Potency means the concentration at half of the fitted maximal effect.
row,SMILES,Potency
1,CS(=O)(=O)Nc1ccc([N+](=O)[O-])cc1Oc1ccccc1,"inconclusive: 5.9 µM [cytotoxic, partial curve, poor fit]"
2,Cc1n[nH]c(C)c1Cc1sc2c(c1C(=O)N1C[C@H](O)CO1)c(=O)n(C)c(=O)n2CC(C)C,"inconclusive: 11.8 µM [cytotoxic, full curve, poor fit]"
3,CC(C)(S)[C@@H](N)C(=O)O,"inconclusive: 0.0166 µM [rising, full curve, poor fit]"
4,CCCc1nc(C(C)(C)O)c(C(=O)O)n1Cc1ccc(-c2ccccc2-c2nn[nH]n2)cc1,"inconclusive: 0.833 µM [rising, full curve, poor fit]"
5,CN(C(=O)c1ccc(F)cc1C(F)(F)F)C1CCN(c2nnc(-c3ccnn3C)c3ccccc23)CC1,"inconclusive: 8.33 µM [cytotoxic, full curve, poor fit]"
6,Nc1ncn([C@H]2C[C@H](O)[C@@H](CO)O2)c(=O)n1,"inconclusive: 2.64 µM [cytotoxic, partial curve, poor fit]"
7,NC(N)=Nc1nc(CSCCC(N)=NS(N)(=O)=O)cs1,active: 20.9 µM
8,CCCCc1oc2ccc(NS(C)(=O)=O)cc2c1C(=O)c1ccc(OCCCN(CCCC)CCCC)cc1,active: 14.8 µM
9,COc1ccc(Cn2ccc3ccc(C(=O)NO)cc32)cc1,"inconclusive: 16.6 µM [cytotoxic, partial curve, poor fit]"
10,COc1ccc(CCN(C)CCCOc2ccc(S(=O)(=O)c3[nH]c4ccccc4c3C(C)C)cc2)cc1OC,active: 18.7 µM
11,CC(C)c1noc(N2CCC(COc3ccc(-c4ccc(S(C)(=O)=O)cc4)nc3)CC2)n1,inactive
12,COc1cc2ncn(-c3cc(OCc4ccccc4S(C)(=O)=O)c(C#N)s3)c2cc1OC,"inconclusive: 37.2 µM [cytotoxic, single point]"
13,O=C(CN1C(=O)C2(CCCC2)NC[C@H]1c1cc(F)cc(F)c1)Nc1ccc2c(c1)C[C@@]1(C2)C(=O)Nc2ncccc21,"inconclusive: 2.64 µM [rising, partial curve, poor fit]"
14,CC[C@H](C)C(=O)O[C@H]1C[C@H](O)C=C2C=C[C@H](C)[C@H](CC[C@@H](O)C[C@@H](O)CC(=O)O)[C@H]21,inactive
15,CCOC(=O)c1ncn2c1CN(C)C(=O)c1cc(F)ccc1-2,"inconclusive: 37.2 µM [cytotoxic, single point]"
16,Cc1ccc(C(=O)Nc2ccc(CN3CCN(C)CC3)c(C(F)(F)F)c2)cc1C#Cc1cnc2cccnn12,active: 14.8 µM
17,C[C@H]1COc2c(N3CCN(C)CC3)c(F)cc3c(=O)c(C(=O)O)cn1c23,inactive
18,Nc1ccc(S(N)(=O)=O)cc1,inactive
19,CC(C)(C)C(=O)Oc1ccc(S(=O)(=O)Nc2ccccc2C(=O)NCC(=O)O)cc1,"inconclusive: 0.0132 µM [rising, full curve, poor fit]"
20,O=C(NC[C@H](O)CO)c1ccncc1Nc1ccc(I)cc1F,active: 20.9 µM

row,SMILES,Potency
1,CC(C)(C)c1cc(C(C)(C)C)c(NC(=O)c2c[nH]c3ccccc3c2=O)cc1O,inactive
2,Nc1c2c(nc3ccccc13)CCCC2,"inconclusive: 18.7 µM [cytotoxic, partial curve, poor fit]"
3,O=C(C[C@@H]1CC=CCCC(=O)O[C@H](c2ccccc2)CNC1=O)NCc1ccc(Cl)cc1,"inconclusive: 20.9 µM [cytotoxic, partial curve, poor fit]"
4,CC(=O)O[C@@]12CO[C@H]1C[C@H](O)[C@@]1(C)C(=O)[C@H](O)C3=C(C)[C@@H](OC(=O)C(O)[C@@H](NC(=O)OC(C)(C)C)c4ccccc4)C[C@@](O)([C@@H](OC(=O)c4ccccc4)[C@@H]21)C3(C)C (stereo not given in full),"inconclusive: 0.0372 µM [rising, full curve, poor fit]"
5,CC(c1cc2ccccc2s1)N(O)C(N)=O (stereo not given),inactive
6,Cc1ccc2c(c1)c1c(n2CCc2ccc(C)nc2)CCN(C)C1,inactive
7,COc1ccc2[nH]cc(CCNC(C)=O)c2c1,active: 8.33 µM
8,CC1=C(C(=O)Nc2cc3cn[nH]c3cc2F)C(c2ccc(Cl)cc2F)N=C(c2ccnc(Cl)c2)N1 (stereo not given),"inconclusive: 18.7 µM [cytotoxic, partial curve, poor fit]"
9,COc1cc2c(cc1OC)CN(CCc1ccc(NC(=O)c3cccc4c(=O)c5cccc(OC)c5[nH]c34)cc1)CC2,active: 9.35 µM
10,CC(Oc1ccc(O)cc1)(P(=O)(O)O)P(=O)(O)O,"inconclusive: 16.6 µM [cytotoxic, partial curve, poor fit]"
11,Cc1ccc(S(=O)(=O)NC(=O)NN2CC3CCCC3C2)cc1 (stereo not given),active: 20.9 µM
12,O=C(NCCCCN1CCOCC1)c1cc2ccccc2o1,"inconclusive: 23.5 µM [cytotoxic, single point]"
13,CCC(=O)NCC[C@@H]1CCc2ccc3c(c21)CCO3,"inconclusive: 6.62 µM [cytotoxic, full curve, poor fit]"
14,CC(C)c1nc(CN(C)C(=O)N[C@H](C(=O)N[C@@H](Cc2ccccc2)C[C@H](O)[C@H](Cc2ccccc2)NC(=O)OCc2cncs2)C(C)C)cs1,"inconclusive: 37.2 µM [cytotoxic, single point]"
15,O=C(Nc1cccc2c(=O)cc(-c3nn[nH]n3)oc12)c1ccc(OCCCCc2ccccc2)cc1,"inconclusive: 26.4 µM [cytotoxic, single point]"
16,NC(=O)C1CCCc2c1[nH]c1ccc(Cl)cc21 (stereo not given),"inconclusive: 5.9 µM [cytotoxic, partial curve, poor fit]"
17,CC(=O)N1CCN(c2ccc(OC[C@H]3CO[C@](Cn4ccnc4)(c4ccc(Cl)cc4Cl)O3)cc2)CC1,"inconclusive: 2.96 µM [cytotoxic, full curve, poor fit]"
18,Nc1nccc(-c2ccc3noc(-c4ccc(Cl)cc4)c3c2)n1,"inconclusive: 20.9 µM [cytotoxic, partial curve, poor fit]"
19,N=C(N)c1ccc2cc(OC(=O)c3ccc(N=C(N)N)cc3)ccc2c1,"inconclusive: 16.6 µM [cytotoxic, partial curve, poor fit]"
20,CN(C)CCC=C1c2ccccc2C=Cc2ccccc21,"inconclusive: 16.6 µM [cytotoxic, partial curve, poor fit]"

# Exported bar-delimited: entries from further up
row | SMILES | Potency
3 | O=C(C[C@@H]1CC=CCCC(=O)O[C@H](c2ccccc2)CNC1=O)NCc1ccc(Cl)cc1 | inconclusive: 20.9 µM [cytotoxic, partial curve, poor fit]
4 | CC(=O)O[C@@]12CO[C@H]1C[C@H](O)[C@@]1(C)C(=O)[C@H](O)C3=C(C)[C@@H](OC(=O)C(O)[C@@H](NC(=O)OC(C)(C)C)c4ccccc4)C[C@@](O)([C@@H](OC(=O)c4ccccc4)[C@@H]21)C3(C)C (stereo not given in full) | inconclusive: 0.0372 µM [rising, full curve, poor fit]

# From PubChem BioAssay (NCATS)
